Measurements from patent publication US20130090327A1, “Inhibitors of Protein Tyrosine Kinase Activity” (METHYLGENE INC., priority 2011, published 2013).
The match of structure and compound is tentative.

By UniProt entry, the sequences of proteins in these tests, tags left out. Residues count along the entry.
UniProt P35968, 806-1356 limits assumed: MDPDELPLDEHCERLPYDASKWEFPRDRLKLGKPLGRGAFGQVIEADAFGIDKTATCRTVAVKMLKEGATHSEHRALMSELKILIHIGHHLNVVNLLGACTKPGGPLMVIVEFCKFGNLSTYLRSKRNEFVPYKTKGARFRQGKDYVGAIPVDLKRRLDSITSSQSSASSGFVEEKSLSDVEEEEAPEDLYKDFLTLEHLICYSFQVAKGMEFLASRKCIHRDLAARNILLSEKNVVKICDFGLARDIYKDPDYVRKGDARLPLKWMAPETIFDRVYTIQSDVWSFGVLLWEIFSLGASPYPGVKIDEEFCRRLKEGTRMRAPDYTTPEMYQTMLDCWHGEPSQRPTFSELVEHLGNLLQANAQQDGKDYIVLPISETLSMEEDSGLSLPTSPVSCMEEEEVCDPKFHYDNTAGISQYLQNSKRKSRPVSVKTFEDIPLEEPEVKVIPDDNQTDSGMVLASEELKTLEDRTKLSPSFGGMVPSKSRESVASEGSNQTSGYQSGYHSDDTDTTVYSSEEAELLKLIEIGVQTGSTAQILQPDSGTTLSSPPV

Target: VEGFR2 (KDR) (Homo sapiens, UniProt P35968)
Assay: In Vitro Receptor Tyrosine Kinase Assay (VEGF Receptor KDR)
Conditions: read-out: VEGFR_IC50_UM; recombinant GST-VEGFR2 806-1356, DELFIA assay, ATP 0.6 uM, enzyme 5 nM
Source text: In Vitro Receptor Tyrosine Kinase Assay (VEGF Receptor KDR)
This test measures the ability of compounds to inhibit the enzymatic activity of recombinant human VEGF receptor enzymatic activity.
A 1.6-kb cDNA corresponding to the catalytic domain of VEGFR2 (KDR) (Genbank accession number AF035121 amino acid 806 to 1356) is cloned into the Pst I site of the pDEST20 Gateway vector (Invitrogen) for the production of a GST-tagged version of that enzyme. This construct is used to generate recombinant baculovirus using the Bac-to-Bac™ system according to the manufacturer's instructions (Invitrogen).
The GST-VEGFR2806-1356 protein is expressed in Sf9 cells (Spodoptera frugiperda) upon infection with recombinant baculovirus construct. Briefly, Sf9 cells grown in suspension and maintained in serum-free medium (Sf900 II supplemented with gentamycin) at a cell density of about 2×10^6 cells/ml are infected with the above-mentioned viruses at a multiplicity of infection (MOI) of 0.1 during 72 hours at 27° C. with agitation at 120 rpm on a rotary shaker. […]
Inhibition of VEGFR/KDR is measured in a DELFIA™ assay (Perkin Elmer). […] Phosphorylated product is detected by incubation with Europium-labeled anti-phosphotyrosine MoAb. After washing the plates, bound MoAb is detected by time-resolved fluorescence in a Gemini SpectraMax reader (Molecular Devices). […]

**Q.** How did the IC50 turn out when `CC(=O)N1CC(NC(=O)Nc2ccc(Oc3ccnc4cc(-c5ccc(CN6CC(N)C6)cn5)sc34)c(F)c2)C1` [Compound 46] was run?
**A.** 193 nM
